These are yes or no findings as the source states them, for the method shown. In cells and extracts the contact can be indirect. These calls come from enrichment with a bait or labelling near it, and not all partners need be listed.
Target: FLAG-tagged β-catenin (mouse) (UniProt Q02248)
Assay: affinity purification with mass spectrometry

Protein sequences, listed by entry. Tags and fused reporters are not part of them.
UniProt Q02248: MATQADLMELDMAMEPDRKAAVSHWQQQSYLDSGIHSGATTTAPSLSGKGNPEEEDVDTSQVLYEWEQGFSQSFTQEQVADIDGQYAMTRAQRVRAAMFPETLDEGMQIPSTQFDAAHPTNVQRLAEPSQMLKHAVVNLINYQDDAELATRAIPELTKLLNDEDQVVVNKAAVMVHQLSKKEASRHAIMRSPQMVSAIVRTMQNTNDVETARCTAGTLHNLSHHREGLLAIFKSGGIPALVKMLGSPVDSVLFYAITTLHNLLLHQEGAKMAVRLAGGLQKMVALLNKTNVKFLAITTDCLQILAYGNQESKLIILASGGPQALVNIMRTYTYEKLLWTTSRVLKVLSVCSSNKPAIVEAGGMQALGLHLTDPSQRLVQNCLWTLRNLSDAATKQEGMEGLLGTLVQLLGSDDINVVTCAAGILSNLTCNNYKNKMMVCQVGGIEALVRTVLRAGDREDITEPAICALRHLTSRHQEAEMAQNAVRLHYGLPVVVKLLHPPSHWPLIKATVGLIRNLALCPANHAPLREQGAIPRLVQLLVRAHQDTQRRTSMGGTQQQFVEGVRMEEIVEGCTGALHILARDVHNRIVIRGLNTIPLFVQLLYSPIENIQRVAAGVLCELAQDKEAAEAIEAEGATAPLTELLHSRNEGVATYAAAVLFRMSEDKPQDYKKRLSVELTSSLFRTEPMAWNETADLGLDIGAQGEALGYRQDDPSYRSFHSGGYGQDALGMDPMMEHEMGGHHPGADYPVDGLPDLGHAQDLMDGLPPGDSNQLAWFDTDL
UniProt Q03267: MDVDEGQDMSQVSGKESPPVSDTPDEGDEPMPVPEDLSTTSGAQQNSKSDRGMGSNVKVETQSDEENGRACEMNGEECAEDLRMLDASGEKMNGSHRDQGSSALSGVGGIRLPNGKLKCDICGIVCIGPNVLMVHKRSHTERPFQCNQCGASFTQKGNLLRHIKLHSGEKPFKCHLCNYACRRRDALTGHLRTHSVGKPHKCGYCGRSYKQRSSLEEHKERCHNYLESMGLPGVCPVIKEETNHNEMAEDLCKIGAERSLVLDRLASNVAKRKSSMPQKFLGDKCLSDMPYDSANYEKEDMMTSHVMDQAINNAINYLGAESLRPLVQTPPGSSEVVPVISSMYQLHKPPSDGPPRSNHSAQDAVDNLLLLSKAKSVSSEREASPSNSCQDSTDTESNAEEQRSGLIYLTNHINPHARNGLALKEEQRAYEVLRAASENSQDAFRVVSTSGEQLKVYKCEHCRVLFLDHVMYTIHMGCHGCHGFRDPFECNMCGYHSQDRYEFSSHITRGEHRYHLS
UniProt O08900: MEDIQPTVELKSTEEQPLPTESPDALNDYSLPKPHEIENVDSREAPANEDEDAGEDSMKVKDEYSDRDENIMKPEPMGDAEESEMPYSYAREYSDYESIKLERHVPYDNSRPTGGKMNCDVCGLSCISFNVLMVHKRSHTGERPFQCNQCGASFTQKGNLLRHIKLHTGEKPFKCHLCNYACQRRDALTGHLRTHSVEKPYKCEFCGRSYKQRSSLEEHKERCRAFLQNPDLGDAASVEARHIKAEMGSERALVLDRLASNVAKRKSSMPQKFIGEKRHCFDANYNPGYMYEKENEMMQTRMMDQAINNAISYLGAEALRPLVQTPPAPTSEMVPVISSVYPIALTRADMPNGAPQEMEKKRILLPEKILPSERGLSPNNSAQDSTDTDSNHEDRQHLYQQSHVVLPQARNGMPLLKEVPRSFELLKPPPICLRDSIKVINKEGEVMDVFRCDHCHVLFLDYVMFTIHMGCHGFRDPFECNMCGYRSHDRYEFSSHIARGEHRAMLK

binding | Substance
binds | Ikzf1 (Ikaros) (from UniProt Q03267 1-517)
binds | Ikzf3 (Aiolos) (from UniProt O08900 1-507)
